According to PMC2330087, “Mechanistic Insights into a Novel Exporter-Importer System of Mycobacterium tuberculosis Unravel Its Role in Trafficking of Iron” (PLoS ONE, 2008):
Results are given in words; binding and its absence hold for the method and conditions named. Binding seen in cells or lysates may run through a third protein. Some results given as binding are weak or reduced against the parent protein; the word gives no strength. Where a sequence is shown, tags or fusion partners need not be part of it.

Target: T1, rGST-IrtB (GST-tagged IrtB, Rv1349) (Mycobacterium tuberculosis H37Rv) (UniProt P9WQJ7)
T1 sequence: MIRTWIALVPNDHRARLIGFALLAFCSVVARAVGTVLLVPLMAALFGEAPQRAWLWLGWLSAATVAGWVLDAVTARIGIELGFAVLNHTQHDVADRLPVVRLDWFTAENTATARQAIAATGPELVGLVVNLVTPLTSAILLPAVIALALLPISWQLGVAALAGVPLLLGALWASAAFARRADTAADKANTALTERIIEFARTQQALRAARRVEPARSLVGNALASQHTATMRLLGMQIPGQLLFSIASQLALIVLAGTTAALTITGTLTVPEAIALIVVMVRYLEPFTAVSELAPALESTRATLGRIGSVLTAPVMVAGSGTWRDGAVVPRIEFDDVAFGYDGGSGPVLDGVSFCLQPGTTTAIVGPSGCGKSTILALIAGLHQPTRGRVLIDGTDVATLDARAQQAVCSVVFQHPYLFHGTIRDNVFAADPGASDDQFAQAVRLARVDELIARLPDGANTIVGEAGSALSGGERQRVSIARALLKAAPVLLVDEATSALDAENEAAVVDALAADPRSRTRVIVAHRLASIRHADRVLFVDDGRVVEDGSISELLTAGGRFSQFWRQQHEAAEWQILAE
Experiment: pull-down; only the target purified

B1: Rv2895c from M.tb H37Rv lysate (protein, UniProt P9WL31 1-283)
chain: MAGRPLHAFEVVATRHLAPHMVRVVLGGSGFDTFVPSDFTDSYIKLVFVDDDVDVGRLPRPLTLDSFADLPTAKRPPVRTMTVRHVDAAAREIAVDIVLHGEHGVAGPWAAGAQRGQPIYLMGPGGAYAPDPAADWHLLAGDESAIPAIAAALEALPPDAIGRAFIEVAGPDDEIGLTAPDAVEVNWVYRGGRADLVPEDRAGDHAPLIEAVTTTAWLPGQVHVFIHGEAQAVMHNLRPYVRNERGVDAKWASSISGYWRRGRTEEMFRKWKKELAEAEAGTH
binding: binds
